Source: US5668264
A weaker result is weaker than the reference pair of the same experiment.

System: PDGF AB (Homo sapiens)
Test: filter binding
Conditions: 3'-3' inverted T at 3' end, substantially lower affinity than full-length, data not shown, purified recombinant protein, protein details: R&D Systems 222-AB, single-stranded DNA

Question: Does “TACTAGGCTTGACAAAGGGCACCATGGCTTAGTGGTCCTAGTAT [14t]” bind (variant of ssDNA ligand 14)?
Answer: Result: binds more weakly

Question: Does “GGGCGCGTTCTTCGTGGTTACTTTTAGTCCCGT [20t-b]” bind (variant of ssDNA ligand 20)?
Answer: Result: binds more weakly

Question: Does “TAGAGGGGAAGTAGGCTGCCTGACTCGAGAGAGTT [26t]” bind (variant of ssDNA ligand 26)?
Answer: Result: binds more weakly

Question: Does “AAGTCGTGCAGGGTCCCCTGGAAGCATCTCCGATCCCAGACTTT [38t]” bind (variant of ssDNA ligand 38)?
Answer: Result: binds more weakly

Question: Does “AGTGGAACAGGGCACGGAGAGTCAAACTTTGGTTTCCCCCACTT [40t]” bind (variant of ssDNA ligand 40)?
Answer: Result: binds more weakly
